For this experiment, the target named is Flag-BPGAP1 (human). As to the kind of experiment: co-IP; MCF7 cells with Flag-BPGAP1 and HA-Vav1; anti-Flag beads; stimulated with 100 ng/ml EGF for the times indicated, with or without U0126 (10 uM, 1 h), or seeded on collagen-coated plates (cell spreading) for the indicated times.

No constants are given. Whether binding was seen depends on the method and setting. Binding seen in cells or lysates may run through a third protein. A result given as binding can be weak or reduced; the word gives no strength. Sequences can lack the tags named with a protein.

B1: HA-Vav1 (protein, UniProt P15498 1-845)
chain: MELWRQCTHWLIQCRVLPPSHRVTWDGAQVCELAQALRDGVLLCQLLNNLLPHAINLREVNLRPQMSQFLCLKNIRTFLSTCCEKFGLKRSELFEAFDLFDVQDFGKVIYTLSALSWTPIAQNRGIMPFPTEEESVGDEDIYSGLSDQIDDTVEEDEDLYDCVENEEAEGDEIYEDLMRSEPVSMPPKMTEYDKRCCCLREIQQTEEKYTDTLGSIQQHFLKPLQRFLKPQDIEIIFINIEDLLRVHTHFLKEMKEALGTPGAANLYQVFIKYKERFLVYGRYCSQVESASKHLDRVAAAREDVQMKLEECSQRANNGRFTLRDLLMVPMQRVLKYHLLLQELVKHTQEAMEKENLRLALDAMRDLAQCVNEVKRDNETLRQITNFQLSIENLDQSLAHYGRPKIDGELKITSVERRSKMDRYAFLLDKALLICKRRGDSYDLKDFVNLHSFQVRDDSSGDRDNKKWSHMFLLIEDQGAQGYELFFKTRELKKKWMEQFEMAISNIYPENATANGHDFQMFSFEETTSCKACQMLLRGTFYQGYRCHRCRASAHKECLGRVPPCGRHGQDFPGTMKKDKLHRRAQDKKRNELGLPKMEVFQEYYGLPPPPGAIGPFLRLNPGDIVELTKAEAEQNWWEGRNTSTNEIGWFPCNRVKPYVHGPPQDLSVHLWYAGPMERAGAESILANRSDGTFLVRQRVKDAAEFAISIKYNVEVKHIKIMTAEGLYRITEKKAFRGLTELVEFYQQNSLKDCFKSLDTTLQFPFKEPEKRTISRPAVGSTKYFGTAKARYDFCARDRSELSLKEGDIIKILNKKGQQGWWRGEIYGRVGWFPANYVEEDYSEYC
Consider B1, for which the binding result is “binds”.

Values taken from PMC10011724.
